For 1 substance, binding results are on record in paper PMC6630525.

No constants are given. Whether binding was seen depends on the method and setting. Binding calls can cover weak binding; strength is not graded here.

The target in assay [1] is T1, AtNRP1 NT/CT (AtNRP1 residues 14-226) (Arabidopsis thaliana) (UniProt Q9CA59).
T1 sequence: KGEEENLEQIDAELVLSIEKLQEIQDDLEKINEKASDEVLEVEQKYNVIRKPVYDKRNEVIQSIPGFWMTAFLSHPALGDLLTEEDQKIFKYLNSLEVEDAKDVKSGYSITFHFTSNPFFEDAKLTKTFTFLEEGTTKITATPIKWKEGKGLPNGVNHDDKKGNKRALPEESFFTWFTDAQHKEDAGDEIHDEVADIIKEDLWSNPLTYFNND
Briefly: native gel or EMSA; native polyacrylamide gel; increasing amounts of H2A-H2B dimer titrated into a constant amount (5 µM) of AtNRP1/2 proteins; both purified.

In assay [2] the target is T2, AtNRP2 NT/CT (AtNRP2 residues 14-223) (Arabidopsis thaliana) (UniProt Q8LC68).
T2 sequence: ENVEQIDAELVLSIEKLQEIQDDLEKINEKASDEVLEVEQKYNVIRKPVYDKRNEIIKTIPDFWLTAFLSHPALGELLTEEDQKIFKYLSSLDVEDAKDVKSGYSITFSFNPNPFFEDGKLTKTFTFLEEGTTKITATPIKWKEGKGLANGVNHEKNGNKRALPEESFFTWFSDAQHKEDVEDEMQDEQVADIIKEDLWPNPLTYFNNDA
Described as above.

For the substance “Arabidopsis thaliana histone H2A-H2B dimer (complex)”, the binding entry in assay [1] and in assay [2] was “binds” throughout.
